The other results are listed elsewhere or left out.
Key:
Assay in all cases: log2 fold change, soluble protein after heating vs DMSO (PISA); higher = thermal stabilisation; K562 cells, 10 uM, 30 min; active = over 0.2 and 3.5 SD of the protein, either way, in both replicates (recomputed)
[1] = compound: C1=CC=C(C=C1)[C@H](COC2=CC3=C(C=C2)NC(=O)N3)NC(=O)C4=CC=CN(C4=O)CC5=CC(=C(C=C5)F)F
Outline: (§1)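 K562 cells at 2×10^6 cells/mL were given 10 μM compound for 30 min. Aliquots then went through 3 min of heating across 48°C-58°C, were pooled, and were extracted in PBS with 0.5% NP-40 at 4°C, and the supernatant after 21,000xg for 90 min was quantified by TMTpro 16plex LC-MS/MS with channel sums equalised. Thermal stability relative to control samples, from duplicates, is given as log2 fold change.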

By UniProt entry, the sequences of proteins in these tests, tags left out. Where a name states a change or a piece, a line headed by the entry shows the natural chain unless it says otherwise.
UniProt Q9H300: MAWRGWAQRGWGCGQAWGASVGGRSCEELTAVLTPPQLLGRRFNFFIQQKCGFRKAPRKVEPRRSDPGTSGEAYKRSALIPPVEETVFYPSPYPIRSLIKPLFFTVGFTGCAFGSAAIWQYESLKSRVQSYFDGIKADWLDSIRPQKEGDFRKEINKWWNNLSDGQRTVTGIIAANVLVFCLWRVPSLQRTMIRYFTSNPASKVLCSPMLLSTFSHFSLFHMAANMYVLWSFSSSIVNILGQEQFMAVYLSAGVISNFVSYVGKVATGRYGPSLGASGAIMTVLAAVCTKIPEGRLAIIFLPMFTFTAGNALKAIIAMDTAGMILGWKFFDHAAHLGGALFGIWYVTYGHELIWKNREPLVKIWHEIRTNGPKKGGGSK
UniProt Q9H074: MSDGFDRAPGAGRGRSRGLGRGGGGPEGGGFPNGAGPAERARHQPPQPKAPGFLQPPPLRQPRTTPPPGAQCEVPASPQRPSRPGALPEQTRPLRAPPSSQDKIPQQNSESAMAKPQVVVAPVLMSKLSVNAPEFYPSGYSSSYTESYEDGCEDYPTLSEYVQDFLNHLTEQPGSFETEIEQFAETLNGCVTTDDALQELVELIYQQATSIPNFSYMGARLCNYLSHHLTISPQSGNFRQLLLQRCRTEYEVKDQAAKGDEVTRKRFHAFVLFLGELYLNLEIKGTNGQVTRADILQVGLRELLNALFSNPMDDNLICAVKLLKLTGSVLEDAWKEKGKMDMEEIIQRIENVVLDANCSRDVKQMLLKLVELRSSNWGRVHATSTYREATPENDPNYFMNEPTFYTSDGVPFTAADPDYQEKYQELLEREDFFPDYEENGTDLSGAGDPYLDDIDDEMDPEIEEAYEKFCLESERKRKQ
UniProt P68402: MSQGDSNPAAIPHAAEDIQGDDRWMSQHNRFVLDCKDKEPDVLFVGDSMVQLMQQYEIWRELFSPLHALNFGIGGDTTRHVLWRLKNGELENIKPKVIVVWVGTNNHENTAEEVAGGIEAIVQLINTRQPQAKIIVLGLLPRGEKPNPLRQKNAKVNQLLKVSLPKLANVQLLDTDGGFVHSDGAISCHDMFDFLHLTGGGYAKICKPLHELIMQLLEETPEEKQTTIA
UniProt P30086: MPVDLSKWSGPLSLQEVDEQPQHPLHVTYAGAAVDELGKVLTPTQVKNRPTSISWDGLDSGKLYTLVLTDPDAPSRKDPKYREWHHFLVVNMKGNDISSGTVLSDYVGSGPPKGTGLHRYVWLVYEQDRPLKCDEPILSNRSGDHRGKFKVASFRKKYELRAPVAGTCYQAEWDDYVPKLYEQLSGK
UniProt Q86W56: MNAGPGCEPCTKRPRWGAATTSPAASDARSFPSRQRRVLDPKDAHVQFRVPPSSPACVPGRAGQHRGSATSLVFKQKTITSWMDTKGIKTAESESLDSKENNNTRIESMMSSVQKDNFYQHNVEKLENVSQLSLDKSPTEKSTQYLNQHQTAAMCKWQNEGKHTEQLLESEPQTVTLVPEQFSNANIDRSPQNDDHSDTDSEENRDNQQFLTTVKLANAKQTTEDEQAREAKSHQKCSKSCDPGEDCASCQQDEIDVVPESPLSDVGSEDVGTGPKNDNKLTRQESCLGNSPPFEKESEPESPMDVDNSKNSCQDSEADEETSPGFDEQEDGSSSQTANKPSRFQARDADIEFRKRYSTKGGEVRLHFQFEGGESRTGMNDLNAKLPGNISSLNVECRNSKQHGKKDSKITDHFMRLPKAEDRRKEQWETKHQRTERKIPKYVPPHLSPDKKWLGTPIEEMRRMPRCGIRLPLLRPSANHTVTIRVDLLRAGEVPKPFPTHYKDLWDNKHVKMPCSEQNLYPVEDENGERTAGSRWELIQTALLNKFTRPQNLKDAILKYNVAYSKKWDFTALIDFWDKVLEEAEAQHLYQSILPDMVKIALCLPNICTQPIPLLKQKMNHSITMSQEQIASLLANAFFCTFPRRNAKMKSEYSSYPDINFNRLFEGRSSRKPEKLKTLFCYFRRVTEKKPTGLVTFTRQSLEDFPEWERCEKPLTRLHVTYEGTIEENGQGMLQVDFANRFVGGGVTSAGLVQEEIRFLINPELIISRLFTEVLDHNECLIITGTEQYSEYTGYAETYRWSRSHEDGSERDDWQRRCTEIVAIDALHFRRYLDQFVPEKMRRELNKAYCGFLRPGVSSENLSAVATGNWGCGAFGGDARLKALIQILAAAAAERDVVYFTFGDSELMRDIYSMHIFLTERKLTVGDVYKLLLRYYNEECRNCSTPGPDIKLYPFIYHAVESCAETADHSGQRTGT
UniProt Q99497, whole entry, looked up: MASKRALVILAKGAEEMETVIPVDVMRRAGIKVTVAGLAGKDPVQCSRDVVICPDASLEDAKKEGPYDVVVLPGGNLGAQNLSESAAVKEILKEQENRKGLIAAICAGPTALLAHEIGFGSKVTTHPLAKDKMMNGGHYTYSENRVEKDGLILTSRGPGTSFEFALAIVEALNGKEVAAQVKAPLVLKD
UniProt Q9H999: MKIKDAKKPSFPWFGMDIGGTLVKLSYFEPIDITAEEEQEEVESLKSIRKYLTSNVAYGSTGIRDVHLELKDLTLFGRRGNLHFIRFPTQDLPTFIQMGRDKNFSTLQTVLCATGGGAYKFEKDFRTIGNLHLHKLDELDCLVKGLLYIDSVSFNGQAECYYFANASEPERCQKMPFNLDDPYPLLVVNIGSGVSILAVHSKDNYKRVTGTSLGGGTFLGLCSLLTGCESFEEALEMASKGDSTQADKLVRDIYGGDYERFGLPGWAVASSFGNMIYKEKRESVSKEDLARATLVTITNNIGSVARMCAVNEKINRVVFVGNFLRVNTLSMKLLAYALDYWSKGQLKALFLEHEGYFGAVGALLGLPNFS
UniProt O60683: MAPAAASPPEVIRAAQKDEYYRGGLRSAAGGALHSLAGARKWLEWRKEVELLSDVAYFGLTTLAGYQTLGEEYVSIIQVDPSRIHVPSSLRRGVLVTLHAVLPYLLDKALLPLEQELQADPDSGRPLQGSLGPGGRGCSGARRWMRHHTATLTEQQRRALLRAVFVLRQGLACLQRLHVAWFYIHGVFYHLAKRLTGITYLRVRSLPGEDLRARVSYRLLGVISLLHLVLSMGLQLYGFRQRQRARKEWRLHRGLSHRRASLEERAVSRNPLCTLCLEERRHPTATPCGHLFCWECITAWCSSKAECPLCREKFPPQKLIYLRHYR
UniProt Q9UBM1: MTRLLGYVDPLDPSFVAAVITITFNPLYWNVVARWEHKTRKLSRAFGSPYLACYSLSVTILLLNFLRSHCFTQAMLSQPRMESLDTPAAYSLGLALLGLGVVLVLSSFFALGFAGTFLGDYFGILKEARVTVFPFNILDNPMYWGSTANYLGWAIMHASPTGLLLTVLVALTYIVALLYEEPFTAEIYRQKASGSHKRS
UniProt P29122: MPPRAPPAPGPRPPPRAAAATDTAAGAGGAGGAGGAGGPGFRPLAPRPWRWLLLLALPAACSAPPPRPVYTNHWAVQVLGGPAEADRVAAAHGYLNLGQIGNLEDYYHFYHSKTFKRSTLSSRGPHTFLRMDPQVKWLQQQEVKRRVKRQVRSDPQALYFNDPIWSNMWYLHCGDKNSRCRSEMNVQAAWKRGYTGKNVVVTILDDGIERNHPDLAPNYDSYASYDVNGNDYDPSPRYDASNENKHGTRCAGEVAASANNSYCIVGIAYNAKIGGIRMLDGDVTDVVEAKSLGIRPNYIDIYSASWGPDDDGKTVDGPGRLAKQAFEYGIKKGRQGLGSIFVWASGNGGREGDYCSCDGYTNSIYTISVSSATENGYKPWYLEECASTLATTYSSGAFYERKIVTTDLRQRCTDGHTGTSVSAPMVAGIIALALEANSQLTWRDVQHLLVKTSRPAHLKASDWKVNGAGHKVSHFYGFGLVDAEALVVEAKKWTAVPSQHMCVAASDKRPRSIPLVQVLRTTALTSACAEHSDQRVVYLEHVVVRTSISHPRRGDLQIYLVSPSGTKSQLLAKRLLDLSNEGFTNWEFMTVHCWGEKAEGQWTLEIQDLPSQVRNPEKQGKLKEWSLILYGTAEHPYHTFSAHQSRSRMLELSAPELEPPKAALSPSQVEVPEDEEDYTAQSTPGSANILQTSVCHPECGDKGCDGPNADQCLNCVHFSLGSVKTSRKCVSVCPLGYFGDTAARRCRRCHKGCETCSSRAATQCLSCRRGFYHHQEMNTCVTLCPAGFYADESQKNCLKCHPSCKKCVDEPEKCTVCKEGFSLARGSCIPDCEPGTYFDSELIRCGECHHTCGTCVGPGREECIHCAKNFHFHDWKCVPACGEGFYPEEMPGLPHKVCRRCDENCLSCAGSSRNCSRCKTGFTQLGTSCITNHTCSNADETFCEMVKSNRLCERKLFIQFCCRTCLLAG
UniProt Q5EBL8: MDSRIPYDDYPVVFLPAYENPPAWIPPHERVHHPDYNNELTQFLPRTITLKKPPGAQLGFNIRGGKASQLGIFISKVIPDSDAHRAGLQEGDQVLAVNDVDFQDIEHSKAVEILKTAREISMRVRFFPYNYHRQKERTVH
UniProt Q9UHG3: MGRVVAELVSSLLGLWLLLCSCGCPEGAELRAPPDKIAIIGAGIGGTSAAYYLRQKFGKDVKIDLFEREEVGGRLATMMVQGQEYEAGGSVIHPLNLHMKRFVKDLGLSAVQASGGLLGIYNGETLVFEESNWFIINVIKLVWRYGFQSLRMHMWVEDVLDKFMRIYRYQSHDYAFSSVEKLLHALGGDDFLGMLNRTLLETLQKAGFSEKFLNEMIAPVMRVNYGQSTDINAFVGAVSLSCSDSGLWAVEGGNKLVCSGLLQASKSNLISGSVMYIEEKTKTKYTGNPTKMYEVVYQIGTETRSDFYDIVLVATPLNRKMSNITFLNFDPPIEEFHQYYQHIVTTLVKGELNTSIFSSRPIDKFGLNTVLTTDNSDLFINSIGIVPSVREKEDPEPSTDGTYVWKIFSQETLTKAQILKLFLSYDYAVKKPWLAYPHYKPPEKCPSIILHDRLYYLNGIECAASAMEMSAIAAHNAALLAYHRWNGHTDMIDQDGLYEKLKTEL

[2] = compound: CC1=C(SC2=C1C(=N[C@H](C3=NN=C(N32)C)CC(=O)N)C4=CC=C(C=C4)Cl)C
Outline: as §1

[3] = compound: CC1=C2C(=CC=C1)N=C(N(C2=O)C3=CC=CC=C3C)CN4C=NC5=C(N=CN=C54)N
Outline: as §1

[4] = compound: Cc1sc2c(c1C)C(c1ccc(Cl)cc1)=N[C@@H](CC(=O)OC(C)(C)C)c1nnc(C)n1-2
Outline: as §1

[5] = compound: c1ccc([C@@H]2C[C@H]2NC2CCNCC2)cc1
Outline: as §1

Measured: log2 fold change

PARL (UniProt Q9H300)
inactive: [1] 0.017 | [2] -0.017 | [3] 0.045 | [4] 0.028 | [5] 0.031

PAIP1 (UniProt Q9H074)
inactive: [1] 0.005 | [2] 0.047 | [3] 0.023 | [4] 0.031 | [5] -0.024

PAFAH1B2 (UniProt P68402)
inactive: [1] -0.042 | [2] -0.078 | [3] 0.078 | [4] 0.004 | [5] 0.082

PEBP1 (UniProt P30086)
inactive: [1] 0.012 | [2] 0.034 | [3] -0.037 | [4] 0.033 | [5] 0.02

PARG (UniProt Q86W56)
inactive: [1] -0.043 | [2] -0.013 | [3] 0.018 | [4] -0.009 | [5] -0.075

PARK7 (UniProt Q99497)
inactive: [1] 0.025 | [2] 0.04 | [3] -0.073 | [4] -0.079 | [5] -0.016

PANK3 (UniProt Q9H999)
inactive: [1] 0.044 | [2] 0.072 | [4] -0.059 | [5] 0.267

PEX10 isoform 2 (UniProt O60683)
inactive: [2] 0.019 | [4] 0.007 | [5] -0.053

PEMT isoform 2 (UniProt Q9UBM1)
inactive: [4] -0.019

PCSK6 isoform 7 (UniProt P29122)
inactive: [1] -0.08 | [2] 0.064 | [3] 0.23 | [5] 0.073

PDZD11 isoform 2 (UniProt Q5EBL8)
inactive: [1] -0.001 | [3] 0.129 | [4] 0.01

PCYOX1 (UniProt Q9UHG3)
inactive: [1] -0.061 | [2] 0.01 | [3] 0.006 | [4] -0.054 | [5] 0.02

Reference: the supplement of paper PMC10849652
